From ChEMBL document CHEMBL3988442, “University of Dundee, Small-Polar-MMV Screening Library” (2021).

Results are given as percent effect. The controls that fix the scale are not given in the record; negative values are as filed. This is an unselected part of the compounds tested.

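Whole-cell assay for inhibitors of Mycobacterium tuberculosis growth, labelled Cornell in the record; the read-out is not stated. The concentration is filed as 10 mM, unlikely as a test dose, so the dose is not known. Higher means stronger inhibition (inferred from two other growth screens of the library). Size under these conditions: about 53,000 compounds, about 900 of them at 50% or above in at least one test.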

Compound | effect
CC(=O)NCCCSC1CCN(c2ccccc2Cl)C1=O (stereo unspecified) | 8.263%
Cc1csc(CCNc2ccc(C#N)cc2F)n1 | 5.781%
COc1cccc(CC(=O)N2CCN(C)c3ncccc3C2)c1.O=C(O)C(F)(F)F | 24.19%
CN(C)c1ncc(CNC(=O)Nc2ccc(C(F)(F)F)cc2)n1C | 18.64%
CC(NC(=O)CCn1cccn1)c1ccc2c(c1)OCCO2 (stereo unspecified) | -30.19%
COc1ccccc1OC1CN(C(=O)CN(C)Cc2ccncc2)C1 | 0.9001%
Fc1cccc2[nH]c(CN3CCn4c(nnc4C4CC4)C3)nc12 | -6.1%
CN(Cc1cc(Br)cn1C)C(=O)c1cc(Cl)ccn1 | -7.21%
O=C(O)C(F)(F)F.O=C(O)C(F)(F)F.[H][C@@]12COC[C@]1(CN1CCOCC1)CN(S(=O)(=O)c1cccnc1)C2 | 7.558%
[H][C@@]12CS(=O)(=O)C[C@]1([H])N(C(=O)c1csc(C)n1)CCN2C(=O)N(C)C | -3.313%
O=C(c1ccc(-n2ccnc2)cc1)N1CCCC(n2ccnc2)C1 (stereo unspecified) | 13.91%
CC(C)NC(=O)N1CC[C@@H](N(C)C)[C@@H]1Cc1ccccc1.O=C(O)C(F)(F)F | -6.281%
CCOC(C)C(=O)Nc1ccnn1-c1ccccc1C (stereo unspecified) | 37.25%
CSCC[C@H](N)C(=O)NCc1cc2n(n1)CCCN(C(=O)N(C)C)C2 | 21.71%
Cc1ccc(CN2CCc3c(CN4CCCC4)n[nH]c3C2)s1.O=C(O)C(F)(F)F.O=C(O)C(F)(F)F | 3.061%
CC(C)n1cc(CN2CCCN(C(=O)C3(C)CCOCC3)CC2)cn1 | -13.71%
COc1ccc(CN(C)[C@@H]2CN(C(=O)c3cncs3)C[C@H]2O)cc1 | 4.263%
CCC(Nc1cccc(OC)c1)C(=O)NCc1ccc2[nH]c(=O)[nH]c2c1 (stereo unspecified) | 8.408%
O=C(NCCN1CCCCCC1=O)c1n[nH]c(=O)c2ccccc12 | -19.93%
CCC(C(=O)N1CCN(C(=O)N2CCOCC2)CC1)n1cccn1 (stereo unspecified) | -0.7771%
CC(C)c1nnc2n1CCN(Cc1csc(-c3cnn(C)c3)n1)C2 | 10.93%
Cc1ccc2c(c1)CCC21CCN(C(=O)CO)CC1 | 18.52%
Cc1ccc(CN2CCn3c(COc4cccnc4)cnc3C2C)o1.O=C(O)C(F)(F)F.O=C(O)C(F)(F)F (stereo unspecified) | 16.37%
CCOCC1CN(C(=O)C2CCOCC2)Cc2cnn(C)c21 (stereo unspecified) | -5.091%
Cc1ccc(NC(=O)N2CCCC(O)(CO)CC2)cc1Cl (stereo unspecified) | -47.97%
Cc1ccc(C#N)c(N2CCCC(c3nccn3Cc3cscn3)C2)n1 (stereo unspecified) | 13.68%
COCCNC1(c2ccc(Cl)cc2)CCOCC1 | -43.32%
CN(Cc1cccnc1)C1COC2(CCN(Cc3nccs3)CC2)C1.O=C(O)C(F)(F)F.O=C(O)C(F)(F)F.O=C(O)C(F)(F)F (stereo unspecified) | -59.48%
N#Cc1ccccc1Cn1cncn1 | 0.287%
c1cnn(Cc2ccc(CN3CCC4(CCNCC4)C3)cc2)c1 | 13.64%
COCCN1CCCC1c1cccc2c1OCCO2 (stereo unspecified) | -26.61%
CCOCCC(=O)N(C)Cc1noc(C(C)C)n1 | -21.5%
CCc1cnc2c(c1Nc1cccc(OC)c1)c(=O)n(C)c(=O)n2C | 12.03%
O=S(=O)(CCO)CCc1ccccc1Cl | 24.51%
CC(=O)Nc1cccc(C(C)NCC2CCS(=O)(=O)CC2)c1 (stereo unspecified) | -12.3%
Cc1cnc(C(=O)N2CCC3(CC2)CC(c2ccccc2)C(=O)N3)cn1 (stereo unspecified) | -3.624%
FC(F)(F)C1CN(Cc2cccc(OCc3ccccn3)c2)CCO1 (stereo unspecified) | 4.51%
c1ccc(Cn2ccnc2CNC2CCCOc3ccccc32)cc1 (stereo unspecified) | 15.59%
Cc1csc2ncc(-c3ccnc(NC4CCOCC4)n3)c(=O)n12 | 21.61%
CCNC(c1ccc(F)cc1)c1cccnc1 (stereo unspecified) | -5.592%
COCCNc1nnc(-c2ccc(C)nc2)s1 | -6.251%
c1cnn(-c2ccc(CN3CCOC(Cn4cncn4)C3)cc2)c1 (stereo unspecified) | 21.1%
O=C(O)C(F)(F)F.[H][C@@]12CCN(C(=O)Cc3cccs3)[C@@]1([H])CC(=O)N2Cc1ccncc1 | -36.88%
Cc1cc(S(=O)(=O)NCC(O)c2sccc2C)ccc1F (stereo unspecified) | 25.93%
Cn1ccnc1CC1CCCN(C(=O)Nc2cccn(C)c2=O)C1 (stereo unspecified) | 15.3%
CCCc1nnc(NC(=O)N2CCCC2c2ccncc2)s1 (stereo unspecified) | -14.13%
CCC(C)(COc1ncccc1Cl)NCC(=O)NCC(C)C (stereo unspecified) | 14.28%
COc1cccc(CN2CCC(c3cc(O)nc(C)n3)C2)c1.O=C(O)CC(O)(CC(=O)O)C(=O)O (stereo unspecified) | 8.176%
c1cnc(N2CCOCC3(CNCCO3)C2)nc1 (stereo unspecified) | -6.414%
CC(C)OCCN(C)C(C)c1cccc(S(N)(=O)=O)c1 (stereo unspecified) | 9.951%
Cc1ccc(NC(=O)C(C)N2CCCN(c3nccs3)CC2)c(C)c1 (stereo unspecified) | 19.84%
Cc1csc(CN2CCC[C@]3(C[C@H](OCC4CC4)CO3)C2)n1 | 14.79%
COc1cccc(-c2nc(CNCc3cccnc3)cs2)c1 | 18.26%
CCc1cccc(N2CCC(NC(=O)C3CCCO3)CC2)c1 (stereo unspecified) | 18.4%
CC(C)Cc1noc(CN2CCN(C(=O)c3ccco3)CC2)n1 | 7.085%
CN(Cc1ccoc1)C(=O)Cn1ncc(N(C)C)cc1=O | -25.04%

For reference, 6 entries once more:

CC(C)Cc1noc(CN2CCN(C(=O)c3ccco3)CC2)n1 gave 7.085%.
CC(C)c1nnc2n1CCN(Cc1csc(-c3cnn(C)c3)n1)C2 gave 10.93%.
CCC(C)(COc1ncccc1Cl)NCC(=O)NCC(C)C (stereo unspecified) gave 14.28%.
Cc1ccc(NC(=O)C(C)N2CCCN(c3nccs3)CC2)c(C)c1 (stereo unspecified) gave 19.84%.
FC(F)(F)C1CN(Cc2cccc(OCc3ccccn3)c2)CCO1 (stereo unspecified) gave 4.51%.
CC(=O)Nc1cccc(C(C)NCC2CCS(=O)(=O)CC2)c1 (stereo unspecified) gave -12.3%.